Measured values published in patent publication US8399689B2, “Chrysophaentin antimicrobial compounds that inhibit FtsZ protein” (The United States of America, as represented by the …, priority 2010, dated 2013).
Some of these results come from one statement about several compounds together. Some compounds share one range, which may span the group rather than tell each member.

tested on: Gram-positive pathogens (S. aureus, B. subtilis, E. faecium, MRSA, MDRSA, VREF); assay: Disk diffusion and microbroth dilution assays, strains taken together; assay type: cell-based; conditions: initial disk diffusion assays
From the text: Solid agar disk diffusion and microbroth dilution assays were used to evaluate the antimicrobial activities of compounds 1, hexaacetate 1a, and 4-8 toward clinically relevant, Gram-positive pathogens, including the drug-susceptible bacteria Staphylococcus aureus, Bacillus subtilis and Enterococcus faecium, and drug-resistant strains methicillin-resistant S. aureus (MRSA), multidrug-resistant S. aureus (MDRSA), and vancomycin-resistant E. faecium (VREF) (see Table 7, Example 2).
Compounds 1-8 were tested for antimicrobial activity against Staphylococcus aureus (SA, ATCC 25923), methicillin-resistant S. aureus (MRSA, ATCC BAA-41), multidrug-resistant S. aureus (MDRSA, ATCC BAA-44), Enterococcus faecium (EF, ATCC 49032), vancomycin-resistant E. Faecium (VRE, ATCC 700221), and Bacillus subtilis (ATCC 49343) using a modified disk diffusion assay and microbroth liquid dilution assays. For disk diffusion assays, agar plates seeded with suspensions of bacteria were prepared by adding 500 μL of a 24 h culture of bacteria to 100 mL of autoclaved Mueller Hinton II agar and cooled to 55° C. Seeded liquid agar (10 mL) was transferred immediately to square Petri dishes and allowed to cool for 1 h. Control drugs used for each microorganism included kanamycin (50 μg) for S. aureus, and nitrofurantoin (25 μg) for MRSA. Following incubation at 37° C. for 18 h, zones of inhibition were measured. MICso values for compounds 1 and 4-8 were determined using a microbroth dilution assay outlined in the Clinical and Laboratory Standards Institute methods for susceptibility tests for bacteria that grow aerobically. Briefly, single bacterial colonies were used to inoculate 4 mL of Trypticase Soy broth (BD) for overnight growth and inoculum for each were diluted to 5×10^5 CFU/mL using the 0.5 McFarland standard. In a 96 well plate (Costar, round bottom), control antibiotics (oxacillin for SA and MRSA, vancomycin for EF and VRE, chloramphenicol for B. subtilis) or natural product inhibitors were added to Muller Hinton II broth (for S. aureus, MRSA, and B. subtilis) or 10% brain heart infusion broth (for E. faecium and VRE) in the first column of the well plates, and serially diluted across the plate, reserving wells for a positive growth control (no treatment). 10 μL of diluted bacteria were added to all wells with the exception of those kept for broth blanks (MHII or brain heart infusion broth only). Plates were incubated at 37° C. overnight and read at absorbance 600 nm on a Molecular Devices plate reader. Growth curves were plotted and ICso values obtained using Kalidagraph software.

Structure (SMILES)	disk load inhibiting growth, all strains
Oc1cc(O)c2c(c1)C/C(Cl)=C\Cc1cc(c(Cl)cc1O)Oc1c(O)cc(cc1O)C/C(Cl)=C\Cc1cc(c(Cl)cc1O)O2 [Compound 1, chrysophaentin 1]	2-25 μg/disk
Oc1cc(O)c2c(c1)C/C(Cl)=C\Cc1cc(c(Br)cc1O)Oc1c(O)cc(cc1O)C/C(Cl)=C\Cc1cc(c(Br)cc1O)O2 [Compound 4, chrysophaentin 4]	2-25 μg/disk
Oc1cc(O)cc(C/C(Cl)=C\Cc2cc(Oc3c(O)cc(C/C(Cl)=C\Cc4cc(O)c(Cl)cc4O)cc3O)c(Cl)cc2O)c1 [Compound 5, chrysophaentin 5]	2-25 μg/disk
Oc1cc(Cl)c2cc1C/C=C(/Cl)Cc1cc(O)c(c(O)c1)Oc1cc(c(O)cc1Cl)C/C=C(/Cl)Cc1cc(O)c(c(O)c1)O2 [Compound 6, chrysophaentin 6]	2-25 μg/disk
Oc1cc(Cl)c2cc1C/C=C(/Cl)Cc1cc(O)c(c(O)c1Br)Oc1cc(c(O)cc1Cl)C/C=C(/Cl)Cc1cc(O)c(c(O)c1)O2 [Compound 8, chrysophaentin 8]	2-25 μg/disk
